These are yes or no findings as the source states them, for the method shown. Binding seen in cells or lysates may run through a third protein. Some results given as binding are weak or reduced against the parent protein; the word gives no strength.
Key:
Assay in all cases: co-IP; endogenous proteins, chromatin fraction (CSK buffer + 0.5% Triton X-100, DNase I) of U2OS synchronized at G1/S boundary by double-thymidine block; IP anti-NFIB with blots of partners, and IP of partners with blot of NFIB
[1] = target: MCM7 (endogenous) (human (endogenous in U2OS)) (UniProt P33993)
[2] = target: T1, MCM4 (endogenous) (human (endogenous in U2OS)) (UniProt P33991)
T1 sequence: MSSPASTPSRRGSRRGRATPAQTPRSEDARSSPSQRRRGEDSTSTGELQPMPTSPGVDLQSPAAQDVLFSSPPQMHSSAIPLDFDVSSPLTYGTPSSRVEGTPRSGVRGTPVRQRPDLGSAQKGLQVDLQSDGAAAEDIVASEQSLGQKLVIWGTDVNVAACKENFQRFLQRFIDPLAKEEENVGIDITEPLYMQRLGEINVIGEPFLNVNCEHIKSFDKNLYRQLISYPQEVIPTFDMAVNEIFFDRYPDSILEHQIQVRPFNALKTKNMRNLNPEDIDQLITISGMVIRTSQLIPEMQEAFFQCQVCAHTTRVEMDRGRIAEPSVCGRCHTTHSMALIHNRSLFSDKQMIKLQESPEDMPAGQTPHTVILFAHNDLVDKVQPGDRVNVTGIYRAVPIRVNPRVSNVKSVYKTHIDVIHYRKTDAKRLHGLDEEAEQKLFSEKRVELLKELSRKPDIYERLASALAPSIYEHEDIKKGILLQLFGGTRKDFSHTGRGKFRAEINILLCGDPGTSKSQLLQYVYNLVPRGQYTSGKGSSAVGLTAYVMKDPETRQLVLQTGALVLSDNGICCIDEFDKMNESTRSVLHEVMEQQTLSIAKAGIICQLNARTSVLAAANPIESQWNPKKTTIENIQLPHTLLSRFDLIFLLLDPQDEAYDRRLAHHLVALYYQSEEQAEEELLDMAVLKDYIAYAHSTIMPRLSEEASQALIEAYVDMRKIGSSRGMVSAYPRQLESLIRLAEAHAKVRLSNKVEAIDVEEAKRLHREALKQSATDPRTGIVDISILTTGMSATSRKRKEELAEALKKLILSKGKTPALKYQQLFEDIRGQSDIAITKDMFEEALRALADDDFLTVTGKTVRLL

[3] = target: T2, MCM6 (endogenous) (human (endogenous in U2OS)) (UniProt Q14566)
T2 sequence: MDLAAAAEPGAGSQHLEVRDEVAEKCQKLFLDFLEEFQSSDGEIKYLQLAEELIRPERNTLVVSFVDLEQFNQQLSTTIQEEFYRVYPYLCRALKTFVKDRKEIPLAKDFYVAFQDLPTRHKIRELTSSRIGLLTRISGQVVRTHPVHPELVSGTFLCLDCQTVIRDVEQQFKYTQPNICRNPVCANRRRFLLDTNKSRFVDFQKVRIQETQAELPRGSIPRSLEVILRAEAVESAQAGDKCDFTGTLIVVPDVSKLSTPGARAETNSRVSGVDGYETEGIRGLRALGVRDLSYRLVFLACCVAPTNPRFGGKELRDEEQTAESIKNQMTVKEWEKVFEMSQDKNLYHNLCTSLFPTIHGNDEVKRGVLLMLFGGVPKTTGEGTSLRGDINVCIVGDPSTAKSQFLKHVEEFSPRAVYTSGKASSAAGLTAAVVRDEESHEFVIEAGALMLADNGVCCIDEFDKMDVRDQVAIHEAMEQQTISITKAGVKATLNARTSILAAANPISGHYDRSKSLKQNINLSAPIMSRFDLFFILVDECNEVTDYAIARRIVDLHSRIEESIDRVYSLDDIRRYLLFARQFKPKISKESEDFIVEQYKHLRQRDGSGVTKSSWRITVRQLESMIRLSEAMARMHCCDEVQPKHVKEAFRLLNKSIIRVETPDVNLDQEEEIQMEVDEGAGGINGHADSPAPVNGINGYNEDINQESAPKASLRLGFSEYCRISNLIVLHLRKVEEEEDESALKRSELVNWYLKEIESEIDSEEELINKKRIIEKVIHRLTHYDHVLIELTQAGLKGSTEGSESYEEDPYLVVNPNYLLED

Measured: binding

NFIB (endogenous) (from UniProt O00712-5 1-494)
binds: all assays above
